{"source": "the supplement of paper PMC3047530", "note": "Counter-ions that a name gives are not always drawn. Some of the results follow. Single values are uncertain, as repeats are few or missing.", "data": [{"tested_on": "Geomyces destructans", "test": "growth inhibition relative to DMSO control; higher = stronger growth inhibition", "conditions": "10 µM; 15 °C; incubation time 10 days", "units": {"growth inhibition": "%"}, "values": [{"smiles": "COC(=O)CC[C@@H](C)[C@H]1CC[C@H]2[C@@H]3[C@H](O)C[C@@H]4C[C@H](O)CC[C@]4(C)[C@H]3C[C@H](O)[C@]12C", "growth inhibition": -10.6}, {"smiles": "Cc1cc(CC(=O)O)n(C)c1C(=O)c1ccc(Cl)cc1", "growth inhibition": -25.4}, {"smiles": "O=C(O)C1=CCCNC1", "growth inhibition": -1.47}, {"smiles": "CC(=O)OC1CCC2(C)C(CCC3(C)C2CC=C2C4C(C)C(C)CCC4(C(=O)O)CCC23C)C1(C)C", "note": "(centres undefined)", "growth inhibition": -15.6}, {"smiles": "CC1(C)C=CC(=O)[C@@]2(C)C1CC(=O)[C@]1(C)C2CC[C@@]2(C)[C@H](c3ccoc3)OC(=O)C3OC321", "note": "(some centres undefined)", "growth inhibition": -25}, {"smiles": "CN(C)C(=O)Nc1ccc(Cl)c(Cl)c1", "growth inhibition": -6.83}, {"smiles": "CC(C)C[C@@H]1NC(=O)[C@H](CCCN)NC(=O)[C@H](C(C)C)NC(=O)[C@H](Cc2ccc(O)cc2)N[C@@H](CCC(=O)O)C(=O)N[C@@H](CC(N)=O)C(=O)[C@@H](Cc2ccccc2)NC(=O)[C@H](Cc2ccccc2)NC(=O)[C@@H]2CCCN2C(=O)[C@@H](Cc2ccccc2)NC1=O", "growth inhibition": -19.8}, {"smiles": "C[C@H](CCC(=O)O)[C@H]1CC[C@H]2[C@@H]3CC[C@@H]4C[C@H](O)CC[C@]4(C)[C@H]3C[C@H](O)[C@]12C", "growth inhibition": -6.96}, {"smiles": "NC1=NCCN1CC(=O)O", "growth inhibition": -16.8}, {"smiles": "CC1(C)O[C@@H]2C[C@H]3[C@@H]4CCC5=CC(=O)C=C[C@]5(C)[C@@]4(F)[C@@H](O)C[C@]3(C)[C@]2(C(=O)CO)O1", "growth inhibition": -15.7}, {"smiles": "Cc1cnc(NC(=O)C2=C(O)c3ccccc3S(=O)(=O)N2C)s1", "growth inhibition": -10.6}, {"smiles": "C[C@@H]1C[C@H]2[C@@H]3CCC4=CC(=O)C=C[C@]4(C)[C@@]3(F)[C@@H](O)C[C@]2(C)[C@@]1(O)C(=O)CO", "growth inhibition": -8.87}, {"smiles": "Cc1nnc(NS(=O)(=O)c2ccc(N)cc2)s1", "growth inhibition": -14.2}, {"smiles": "CC1CC(OC(=O)C(O)c2ccccc2)CC(C)(C)N1C", "note": "(centres undefined)", "growth inhibition": 4.52}, {"smiles": "OC[C@H]1O[C@@H](n2cnc3c(NCc4ccco4)ncnc32)[C@H](O)[C@@H]1O", "growth inhibition": -15.7}, {"smiles": "CC(=O)OCC(OC(C)=O)C(OC(C)=O)C(OC(C)=O)C(OC(C)=O)C(COC(C)=O)OC(C)=O", "note": "(centres undefined)", "growth inhibition": 3.07}, {"smiles": "C1CCN2C[C@@H]3C[C@@H](CN4CCCC[C@@H]34)[C@H]2C1", "growth inhibition": -10.4}, {"smiles": "CC(C(=O)O)c1ccc(N2Cc3ccccc3C2=O)cc1", "note": "(centres undefined)", "growth inhibition": 1.16}, {"smiles": "CO[C@@]12[C@H](COC(N)=O)C3=C(C(=O)C(C)=C(N)C3=O)N1C[C@@H]1N[C@@H]12", "growth inhibition": -25.4}, {"smiles": "Cc1ccc(Cl)c(Nc2ccccc2C(=O)O)c1Cl", "growth inhibition": 2.38}, {"smiles": "C[C@H]1C[C@H]2[C@@H]3CCC4=CC(=O)C=C[C@]4(C)[C@@]3(F)[C@@H](O)C[C@]2(C)[C@@]1(O)C(=O)CO", "growth inhibition": -18.3}, {"smiles": "CC(C)C1=CC2=CC[C@@H]3[C@](C)(CCC[C@@]3(C)C(=O)O)[C@H]2CC1", "growth inhibition": -15.3}, {"smiles": "CC1(C)C(=O)C=C[C@@]2(C)C1CC(=O)[C@@]1(C)C3=CC(=O)O[C@@H](c4ccoc4)[C@]3(C)CCC12", "note": "(some centres undefined)", "growth inhibition": -7.91}, {"smiles": "O=C(O[C@@H]1Cc2c(O)cc(O)cc2O[C@@H]1c1cc(O)c(=O)c2c(O)c(O)cc([C@H]3Oc4cc(O)cc(O)c4C[C@H]3O)c2c1)c1cc(O)c(O)c(O)c1", "growth inhibition": -5.74}, {"smiles": "C[C@@H]1O[C@@H](O[C@H]2[C@H](O[C@H]3CC[C@@]4(C)[C@@H](CC[C@]5(C)[C@@H]4CC=C4[C@@H]6CC(C)(C)CC[C@]6(C(=O)O[C@@H]6O[C@H](CO[C@@H]7O[C@H](CO)[C@@H](O[C@@H]8O[C@@H](C)[C@H](O)[C@@H](O)[C@H]8O)[C@H](O)[C@H]7O)[C@@H](O)[C@H](O)[C@H]6O)CC[C@]45C)[C@]3(C)CO)OC[C@H](O)[C@@H]2O)[C@H](O)[C@H](O)[C@H]1O", "growth inhibition": -3.77}, {"smiles": "CCOC(=O)CCCCCCCCCCCCC1C=CCC1", "note": "(centres undefined)", "growth inhibition": -8.59}, {"smiles": "CCn1nc(C(=O)O)c(=O)c2cc3c(cc21)OCO3", "growth inhibition": -1.52}, {"smiles": "Cc1cc(/C=C/c2ccc3cc(N(C)C)ccc3[n+]2C)c(C)n1-c1ccccc1", "growth inhibition": -22.8}, {"smiles": "CC(=O)OCC1(C)CCC2(C)CCC3(C)C4=CCc5c(cc(OC(C)=O)c(OC(C)=O)c5C)C4(C)CCC3(C)C2C1", "note": "(centres undefined)", "growth inhibition": -4.61}, {"smiles": "Cc1c(Cl)cccc1Nc1ccccc1C(=O)O", "growth inhibition": -1.58}, {"smiles": "CCCSc1ccc2[nH]c(NC(=O)OC)nc2c1", "growth inhibition": -2.21}, {"smiles": "C[C@@H]1CC[C@H]2C(C)(C)[C@H]3C[C@@]12CC[C@@]3(C)O", "growth inhibition": -4.62}, {"smiles": "CC(=O)C1=C(O)C=C2Oc3c(C(C)=O)c(O)c(C)c(O)c3C2(C)C1=O", "note": "(stereo in doubt)", "growth inhibition": -41.4}, {"smiles": "CCc1ccc(CCOc2ccc(CC3SC(=O)NC3=O)cc2)nc1", "note": "(centres undefined)", "growth inhibition": -26.2}, {"smiles": "Clc1ccc2c(c1)C(N1CCNCC1)=Nc1ccccc1O2", "growth inhibition": -0.774}, {"smiles": "CC(C)[C@@H](C)/C=C/[C@@H](C)[C@H]1CC[C@H]2C3=CC=C4C[C@@H](O)CC[C@]4(C)[C@H]3CC[C@]12C", "growth inhibition": 6.63}, {"smiles": "O=C1c2ccccc2C(=O)C1c1ccccc1", "growth inhibition": -30.6}, {"smiles": "c1ccc(CC2=NCCN2)cc1", "growth inhibition": -11.7}, {"smiles": "COc1c(O)cc2occ(-c3ccc(O)cc3)c(=O)c2c1O", "growth inhibition": -0.794}, {"smiles": "NCCCCC(=O)O", "growth inhibition": -7.31}, {"smiles": "OCCN1CCN(CCCN2c3ccccc3Sc3ccc(C(F)(F)F)cc32)CC1", "growth inhibition": -5.9}, {"smiles": "CC(C)(Oc1ccc(CCNC(=O)c2ccc(Cl)cc2)cc1)C(=O)O", "growth inhibition": -11.5}, {"smiles": "CC1=CC(=O)[C@H]2C(C)(C)CCC[C@]2(C)[C@@]1(O)CCc1ccoc1", "growth inhibition": 1.81}, {"smiles": "COc1cc(/C=C/C=O)cc(OC)c1OC", "growth inhibition": -6.87}, {"smiles": "CC1=C(/C=C/C(C)=C/C=C/C(C)=C/C=C/C=C(C)/C=C/C=C(C)/C=C/C2=C(C)CCCC2(C)C)C(C)(C)CCC1", "note": "[beta-CAROTENE]", "growth inhibition": -7.82}, {"smiles": "CC[C@H]1OC(=O)[C@H](C)[C@@H](O[C@H]2C[C@@](C)(OC)[C@@H](O)[C@H](C)O2)[C@H](C)[C@@H](O[C@@H]2O[C@H](C)C[C@H](N(C)C)[C@H]2O)[C@](C)(O)C[C@@H](C)C(=O)[C@H](C)[C@@H](O)[C@]1(C)O", "growth inhibition": -18.1}, {"smiles": "CCOC(=O)N1CCC(=C2c3ccc(Cl)cc3CCc3cccnc32)CC1", "growth inhibition": 11.6}, {"smiles": "COc1cc(O)c2c(=O)cc(-c3ccc(OC)c(-c4c(O)cc(O)c5c(=O)cc(-c6ccc(O)cc6)oc45)c3)oc2c1", "note": "[GINKGETIN, K salt]", "growth inhibition": -19.2}, {"smiles": "NC(=O)c1ccccc1O", "growth inhibition": -23.7}, {"smiles": "COc1ccc(-c2coc3cc(O)ccc3c2=O)cc1", "growth inhibition": 2.99}, {"smiles": "Oc1c(Br)cc(Br)c2cccnc12", "growth inhibition": -10.9}, {"smiles": "CCC(=O)O[C@H]1CC[C@H]2[C@@H]3CCc4cc(O)ccc4[C@H]3CC[C@]12C", "growth inhibition": -13.6}, {"smiles": "CN(C)[C@@H]1C(O)=C(C(N)=O)C(=O)[C@@]2(O)C(O)=C3C(=O)c4c(O)cccc4[C@@](C)(O)[C@H]3C[C@@H]12", "growth inhibition": -18.3}, {"smiles": "CC(=O)O[C@H]1CC[C@]2(C)C(C[C@H](OC(C)=O)[C@]3(C)C4=CC(=O)OC(c5ccoc5)[C@@]4(C)CCC23)C1(C)C", "note": "(stereo partly drawn) [3beta,7beta-DIACETOXYDEOXODEACETOXYDEOXYDIHYDROGEDUNIN]", "growth inhibition": -11.4}, {"smiles": "COC(=O)[C@H](c1ccccc1Cl)N1CCc2sccc2C1", "growth inhibition": -10.8}, {"smiles": "C[C@]12CCC(=O)C=C1CC[C@@H]1[C@@H]2C(=O)C[C@@]2(C)[C@H]1CC[C@]2(O)C(=O)CO", "growth inhibition": -4.29}, {"smiles": "Nc1ccc(S(=O)(=O)NC(=O)c2ccccc2)cc1", "growth inhibition": -30.1}, {"smiles": "CC(C)c1nc(N(C)S(C)(=O)=O)nc(-c2ccc(F)cc2)c1/C=C/[C@@H](O)C[C@@H](O)CC(=O)O", "growth inhibition": -8.18}, {"smiles": "C=C(CC)C(=O)c1ccc(OCC(=O)O)c(Cl)c1Cl", "growth inhibition": 29.7}, {"smiles": "CCCCCC1C(=O)CCC1CC(=O)OC", "note": "(centres undefined)", "growth inhibition": 5.6}, {"smiles": "COc1ccc2c(c1)[C@@]1(C)CCC(=O)C[C@H]1CC2", "note": "[5beta-12-METHOXY-4,4-BISNOR-8,11,13-PODOCARPATRIEN-3-ONE]", "growth inhibition": -7.59}, {"smiles": "CCN(CC)CCCC(C)Nc1ccnc2cc(Cl)ccc12", "note": "(centres undefined)", "growth inhibition": 0.521}, {"smiles": "O=c1cc(-c2ccc(O)cc2)oc2cc(O[C@@H]3O[C@H](CO)[C@@H](O)[C@H](O)[C@H]3O[C@@H]3OC[C@](O)(CO)[C@H]3O)cc(O)c12", "growth inhibition": -0.071}, {"smiles": "c1ccc2c(c1)CCCC2C1=NCCN1", "note": "(centres undefined)", "growth inhibition": -12.6}, {"smiles": "O=C(/C=C(\\O)c1ccccc1)c1ccccc1O", "note": "[2',beta-DIHYDROXYCHALCONE]", "growth inhibition": 2.91}, {"smiles": "C1N2CN3CN1CN(C2)C3", "growth inhibition": -7.83}, {"smiles": "O=C(O)C1=C[C@@H](O)[C@@H](O)[C@H](O)C1", "growth inhibition": -2.63}, {"smiles": "C=C(C)[C@@H]1CC[C@]2(C(=O)O)CC[C@]3(C)[C@H](CC[C@@H]4[C@@]5(C)CC[C@H](O)C(C)(C)[C@@H]5CC[C@]43C)[C@@H]12", "growth inhibition": -8.08}, {"smiles": "Oc1ccc2c(c1)OC[C@]1(O)Cc3cc(O)c(O)cc3[C@H]21", "growth inhibition": 9.31}, {"smiles": "CCn1cc(C(=O)O)c(=O)c2cc(F)c(N3CCNCC3)nc21", "growth inhibition": 0.305}, {"smiles": "C=CCc1ccc(O)c(OC)c1", "growth inhibition": -9.7}, {"smiles": "O=C1OC(c2ccc(O)cc2)(c2ccc(O)cc2)c2ccccc21", "growth inhibition": -0.89}, {"smiles": "COc1ccc2c(C)cc(=O)oc2c1", "growth inhibition": -8.66}, {"smiles": "COC(=O)C[C@H]1C(C)(C)[C@@H](O)[C@@H]2CC3=C4C=C(OC)O[C@@H](c5ccoc5)[C@]4(C)CCC3[C@@]1(C)C2=O", "note": "(stereo partly drawn) [3-DEOXO-3beta-HYDROXYMEXICANOLIDE 16-ENOL ETHER]", "growth inhibition": -3.64}, {"smiles": "CC(=O)N[C@@H](Cc1c[nH]c2ccccc12)C(=O)O", "growth inhibition": -30.8}, {"smiles": "COc1ccccc1-c1coc2cc(O)ccc2c1=O", "growth inhibition": -13.3}, {"smiles": "CC(C(=O)O)c1cccc(Oc2ccccc2)c1", "note": "(centres undefined)", "growth inhibition": -16.7}, {"smiles": "O=C(O)CN(CCN(CC(=O)O)CC(=O)O)CC(=O)O.[Na+].[Na+].[Na+]", "growth inhibition": -4.82}, {"smiles": "C=CC(C)(O)CCC=C(C)CCC=C(C)C", "note": "(mixture of isomers)", "growth inhibition": -1.95}, {"smiles": "CCCc1ncc(C[n+]2ccccc2C)c(N)n1", "growth inhibition": -40.3}, {"smiles": "Nc1[nH]cnc2ncnc1-2", "growth inhibition": 0.397}, {"smiles": "CC(=O)[C@@]1(O)CC[C@H]2[C@@H]3C=C(Cl)C4=CC(=O)[C@@H]5C[C@@H]5[C@]4(C)[C@H]3CC[C@@]21C", "growth inhibition": 4.68}, {"smiles": "CC[N+](C)(C)c1cccc(O)c1", "growth inhibition": -10.9}, {"smiles": "NCCc1c[nH]cn1", "growth inhibition": -0.831}]}]}
